# Assay results taken from paper PMC6602300.
# Protein sequences, listed by entry. Tags and fused reporters are not part of them.
# UniProt Q80U58: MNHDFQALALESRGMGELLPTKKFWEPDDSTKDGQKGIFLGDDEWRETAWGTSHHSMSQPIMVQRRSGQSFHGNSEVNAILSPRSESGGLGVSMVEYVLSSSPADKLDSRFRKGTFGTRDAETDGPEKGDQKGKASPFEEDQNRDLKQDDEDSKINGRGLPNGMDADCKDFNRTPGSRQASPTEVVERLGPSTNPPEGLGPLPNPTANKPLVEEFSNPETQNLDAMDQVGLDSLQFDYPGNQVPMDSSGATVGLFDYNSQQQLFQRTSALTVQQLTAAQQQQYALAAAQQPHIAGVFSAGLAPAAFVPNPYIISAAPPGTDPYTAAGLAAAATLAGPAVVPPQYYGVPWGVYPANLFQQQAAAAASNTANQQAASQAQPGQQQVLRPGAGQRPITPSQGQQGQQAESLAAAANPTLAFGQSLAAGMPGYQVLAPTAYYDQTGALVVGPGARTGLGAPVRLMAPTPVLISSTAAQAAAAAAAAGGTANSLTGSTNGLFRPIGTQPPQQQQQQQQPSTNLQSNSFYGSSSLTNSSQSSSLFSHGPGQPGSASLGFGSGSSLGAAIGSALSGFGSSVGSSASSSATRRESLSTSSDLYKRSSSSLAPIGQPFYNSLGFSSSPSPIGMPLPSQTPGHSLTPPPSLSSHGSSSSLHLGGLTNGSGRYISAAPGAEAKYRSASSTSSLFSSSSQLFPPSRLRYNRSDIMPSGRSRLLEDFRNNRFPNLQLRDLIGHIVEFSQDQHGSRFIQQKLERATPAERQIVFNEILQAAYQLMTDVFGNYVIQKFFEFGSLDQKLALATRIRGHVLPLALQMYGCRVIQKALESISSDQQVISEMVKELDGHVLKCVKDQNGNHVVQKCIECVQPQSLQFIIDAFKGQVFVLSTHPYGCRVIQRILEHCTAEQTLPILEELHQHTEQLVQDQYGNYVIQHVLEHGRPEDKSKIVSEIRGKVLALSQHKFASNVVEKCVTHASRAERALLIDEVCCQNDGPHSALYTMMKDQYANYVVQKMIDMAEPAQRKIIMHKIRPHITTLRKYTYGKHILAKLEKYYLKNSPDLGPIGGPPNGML
# UniProt Q921F2: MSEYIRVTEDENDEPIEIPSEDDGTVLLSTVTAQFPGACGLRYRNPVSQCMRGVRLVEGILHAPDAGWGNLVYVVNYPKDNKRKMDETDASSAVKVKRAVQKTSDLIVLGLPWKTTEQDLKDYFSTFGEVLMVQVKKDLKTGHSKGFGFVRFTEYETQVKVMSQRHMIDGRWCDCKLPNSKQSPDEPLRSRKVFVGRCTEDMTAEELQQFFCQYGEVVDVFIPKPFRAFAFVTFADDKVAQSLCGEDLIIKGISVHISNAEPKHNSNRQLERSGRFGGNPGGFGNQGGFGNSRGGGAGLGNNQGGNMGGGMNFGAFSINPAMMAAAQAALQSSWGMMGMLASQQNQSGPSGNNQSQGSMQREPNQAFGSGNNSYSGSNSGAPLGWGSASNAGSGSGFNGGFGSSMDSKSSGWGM
# UniProt P63073: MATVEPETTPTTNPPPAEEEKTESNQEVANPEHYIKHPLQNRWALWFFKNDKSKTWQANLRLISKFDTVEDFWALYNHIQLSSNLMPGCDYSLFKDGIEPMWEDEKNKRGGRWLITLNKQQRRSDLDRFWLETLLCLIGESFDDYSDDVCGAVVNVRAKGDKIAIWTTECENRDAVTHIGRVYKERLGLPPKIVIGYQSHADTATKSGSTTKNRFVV
# UniProt Q5SF07: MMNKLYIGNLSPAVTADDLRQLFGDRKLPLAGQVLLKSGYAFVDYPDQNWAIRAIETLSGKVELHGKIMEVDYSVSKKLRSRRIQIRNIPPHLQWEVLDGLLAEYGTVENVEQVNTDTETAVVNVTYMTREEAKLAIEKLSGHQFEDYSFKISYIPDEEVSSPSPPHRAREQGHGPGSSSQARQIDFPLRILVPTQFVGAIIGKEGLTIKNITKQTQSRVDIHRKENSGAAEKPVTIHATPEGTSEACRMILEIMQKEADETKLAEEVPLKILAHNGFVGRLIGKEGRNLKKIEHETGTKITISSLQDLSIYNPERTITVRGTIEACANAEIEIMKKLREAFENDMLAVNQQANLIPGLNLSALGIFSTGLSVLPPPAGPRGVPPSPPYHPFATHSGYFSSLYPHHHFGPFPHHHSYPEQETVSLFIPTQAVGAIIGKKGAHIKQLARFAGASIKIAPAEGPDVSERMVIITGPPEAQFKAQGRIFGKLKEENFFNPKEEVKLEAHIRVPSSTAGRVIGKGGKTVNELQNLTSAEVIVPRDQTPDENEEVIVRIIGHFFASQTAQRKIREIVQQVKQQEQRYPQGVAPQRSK
# UniProt Q9CPN8: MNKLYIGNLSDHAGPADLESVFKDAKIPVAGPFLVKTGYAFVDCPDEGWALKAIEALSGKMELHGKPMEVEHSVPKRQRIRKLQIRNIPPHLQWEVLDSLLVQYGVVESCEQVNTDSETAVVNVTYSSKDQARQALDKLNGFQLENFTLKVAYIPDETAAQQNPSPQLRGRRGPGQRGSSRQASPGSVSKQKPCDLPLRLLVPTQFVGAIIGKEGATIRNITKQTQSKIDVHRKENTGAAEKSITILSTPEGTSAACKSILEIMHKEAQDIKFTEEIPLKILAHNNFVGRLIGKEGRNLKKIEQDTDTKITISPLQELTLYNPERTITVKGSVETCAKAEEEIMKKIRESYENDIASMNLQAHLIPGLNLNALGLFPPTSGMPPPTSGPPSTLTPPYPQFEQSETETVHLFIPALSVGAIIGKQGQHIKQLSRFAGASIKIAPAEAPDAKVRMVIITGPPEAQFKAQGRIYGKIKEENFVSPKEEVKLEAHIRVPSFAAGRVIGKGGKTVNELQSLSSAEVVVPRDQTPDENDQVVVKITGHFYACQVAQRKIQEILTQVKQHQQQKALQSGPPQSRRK
# No constants are given. Whether binding was seen depends on the method and setting. In cells and extracts the contact can be indirect. A yes stands for co-enrichment or nearness to the bait. Other partners may have been found. Tags and fused reporters may be left off the sequences shown.
# T1: HA-tagged OTU domain-containing protein 4 (HA–OTUD4) (human) (UniProt Q01804)
# T1 sequence: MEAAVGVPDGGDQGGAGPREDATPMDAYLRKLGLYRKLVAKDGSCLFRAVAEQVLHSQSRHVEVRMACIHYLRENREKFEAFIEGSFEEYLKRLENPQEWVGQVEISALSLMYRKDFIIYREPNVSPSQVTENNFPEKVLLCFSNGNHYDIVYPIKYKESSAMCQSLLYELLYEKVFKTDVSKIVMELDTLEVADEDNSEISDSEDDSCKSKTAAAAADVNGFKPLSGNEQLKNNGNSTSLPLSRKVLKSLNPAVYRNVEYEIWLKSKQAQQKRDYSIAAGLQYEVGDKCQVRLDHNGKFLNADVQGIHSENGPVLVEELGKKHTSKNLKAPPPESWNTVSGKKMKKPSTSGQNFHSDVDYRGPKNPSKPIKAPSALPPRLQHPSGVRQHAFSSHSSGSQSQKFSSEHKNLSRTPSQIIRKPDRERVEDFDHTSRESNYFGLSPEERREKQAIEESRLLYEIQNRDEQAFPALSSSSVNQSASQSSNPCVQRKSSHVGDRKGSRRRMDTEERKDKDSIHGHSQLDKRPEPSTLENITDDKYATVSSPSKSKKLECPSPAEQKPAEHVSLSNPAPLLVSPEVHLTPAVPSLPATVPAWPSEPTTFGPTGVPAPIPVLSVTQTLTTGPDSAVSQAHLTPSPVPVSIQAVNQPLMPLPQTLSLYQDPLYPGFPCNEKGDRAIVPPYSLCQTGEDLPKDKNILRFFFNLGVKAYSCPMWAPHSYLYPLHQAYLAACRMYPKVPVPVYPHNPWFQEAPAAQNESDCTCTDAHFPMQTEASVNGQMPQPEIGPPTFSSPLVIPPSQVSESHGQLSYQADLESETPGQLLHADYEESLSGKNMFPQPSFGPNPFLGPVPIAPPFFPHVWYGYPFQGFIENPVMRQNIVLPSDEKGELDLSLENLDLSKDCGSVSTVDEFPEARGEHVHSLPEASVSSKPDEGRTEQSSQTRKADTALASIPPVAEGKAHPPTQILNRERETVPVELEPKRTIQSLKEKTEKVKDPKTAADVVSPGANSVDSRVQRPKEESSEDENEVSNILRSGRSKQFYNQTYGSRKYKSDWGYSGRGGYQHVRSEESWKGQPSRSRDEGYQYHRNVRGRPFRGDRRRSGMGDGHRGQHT
# B1: helicase MOV10 of mouse brain (protein, UniProt P23249 1-1004)
# chain: MPSKFSCRKLRETGQRFESFLAERGLDLETDRERLRTIYNHDFKPSYGTPAPGFSSMLYGMKIANLAFVTKTRVRFFKLDRWADVQLPEKRRIKPGSNISKQHRSLLARIFHDRAEYLHGKHGVDVEVQGPHEARDGQLLIHLDLNRKEVLTLRLRNGGSKPVTLTHLFPLCWTPQFVFYHGEQDLPCPLGPGESYELHIYCKTSIVGYFPATVLWELLGPGESGAEGAETFYIARFLAAVAHSPLAAQLKPTTPFKRPPRLTRNSVLTNRIEEGERPDRAKGYELELSLALGTYYPPILLRQLLPTLLQGPSIFTAPKEVAEIKAQLETTLKSRNYEVKLRLLLHLEELQMEHDIRHYDLDSVPMTWDPVDQNPRLLTLEVPGVAESRPSVLRGDHLFALLSSETQQDDPVTYKGFVHKVELDRVKLSFSTSLLSRFVDGLTFKVNFTFNRQPLRVQHRALELTGRWVLWPMLFPVASRGVSLLPSDVKFKLYDRSLESNPEQLQAMKHIVRGTTRPAPYIIFGPPGTGKTVTLVEAIKQVVKHLPKAHILACAPSNSGADLLCQRLRVHLPSSIYRLLAPSRDIRMVPEDIKTCCNWDAKKGEYVYPAKKHLQQYRVLITTLITASRLVSAQFPIDHFTHIFIDEAGHCMEPESLVAIAGLMDVKETGNPGGQLVLAGDPRQLGPVLRSPLALKHGLGYSLLERLLAYNSLYKKGPNGYDPQFITKLLRNYRSHPTILDIPNQLYYDGELQACADVVDRERFCRWEGLPQQGFPIIFHGVMGKDEREGNSPSFFNPEEAATVTSYLKQLLAPSSKKGKARLSPRNVGVISPYRKQVEKIRYCITKLDRELRGLDDIKDLKVGSVEEFQGQERSVILISTVRSSQSFVQLDLDFNLGFLKNPKRFNVAVTRAKALLIVVGNPLLLGHDPDWKTFLEFCKENGGYTGCPFPAKLDLQQGQDLLQGLSKLSPSTSGPRRHQNLPQEREGEGGLPLQVEPEWRNEL
# B2: Purβ of mouse brain (protein, UniProt O35295 1-324)
# chain: MADGDSGSERGGGGGGGGGPGGFQPAPRGGGGGGGGPGGEQETQELASKRLDIQNKRFYLDVKQNAKGRFLKIAEVGAGGSKSRLTLSMAVAAEFRDSLGDFIEHYAQLGPSSPEQLAAGAEEGGGPRRALKSEFLVRENRKYYLDLKENQRGRFLRIRQTVNRGGGGFGGGPGPGGLQSGQTIALPAQGLIEFRDALAKLIDDYGGDEDELAGGPGGGAGGPGGGLYGELPEGTSITVDSKRFFFDVGCNKYGVFLRVSEVKPSYRNAITVPFKAWGKFGGAFCRYADEMKEIQERQRDKLYERRGGGSGGGDESEGEEVDED
# B3: ataxin-2 of mouse brain (protein, UniProt O70305 1-1285)
# chain: MRSSTAAVQRPAAGDPEPRRPAGWAARRSLPRTARRGGRGGAVAYPSAGPPPRGPGAPPRGPRSPPCASDCFGSNGHGASRPGSRRLLGVCGPPRPFVVVLLALAPAATPARACPPGVRASPPRSGVSSSARPAPGCPRPACEPVYGPLTMSLKPQPQPPAPATGRKPGGGLLSSPGAAPASAAVTSASVVPAPAAPVASSSAAAGGGRPGLGRGRNSSKGLPQPTISFDGIYANVRMVHILTSVVGSKCEVQVKNGGIYEGVFKTYSPKCDLVLDAAHEKSTESSSGPKREEIMESVLFKCSDFVVVQFKDTDSSYARRDAFTDSALSAKVNGEHKEKDLEPWDAGELTASEELELENDVSNGWDPNDMFRYNEENYGVVSTYDSSLSSYTVPLERDNSEEFLKREARANQLAEEIESSAQYKARVALENDDRSEEEKYTAVQRNCSDREGHGPNTRDNKYIPPGQRNREVLSWGSGRQSSPRMGQPGPGSMPSRAASHTSDFNPNAGSDQRVVNGGVPWPSPCPSHSSRPPSRYQSGPNSLPPRAATHTRPPSRPPSRPSRPPSHPSAHGSPAPVSTMPKRMSSEGPPRMSPKAQRHPRNHRVSAGRGSMSSGLEFVSHNPPSEAAAPPVARTSPAGGTWSSVVSGVPRLSPKTHRPRSPRQSSIGNSPSGPVLASPQAGIIPAEAVSMPVPAASPTPASPASNRALTPSIEAKDSRLQDQRQNSPAGSKENVKASETSPSFSKADNKGMSPVVSEHRKQIDDLKKFKNDFRLQPSSTSESMDQLLSKNREGEKSRDLIKDKTEASAKDSFIDSSSSSSNCTSGSSKTNSPSISPSMLSNAEHKRGPEVTSQGVQTSSPACKQEKDDREEKKDTTEQVRKSTLNPNAKEFNPRSFSQPKPSTTPTSPRPQAQPSPSMVGHQQPAPVYTQPVCFAPNMMYPVPVSPGVQPLYPIPMTPMPVNQAKTYRAGKVPNMPQQRQDQHHQSTMMHPASAAGPPIVATPPAYSTQYVAYSPQQFPNQPLVQHVPHYQSQHPHVYSPVIQGNARMMAPPAHAQPGLVSSSAAQFGAHEQTHAMYACPKLPYNKETSPSFYFAISTGSLAQQYAHPNAALHPHTPHPQPSATPTGQQQSQHGGSHPAPSPVQHHQHQAAQALHLASPQQQSAIYHAGLAPTPPSMTPASNTQSPQSSFPAAQQTVFTIHPSHVQPAYTTPPHMAHVPQAHVQSGMVPSHPTAHAPMMLMTTQPPGPKAALAQSALQPIPVSTTAHFPYMTHPSVQAHHQQQL
# B4: T-cell-restricted intracellular antigen 1 (TIA1) of mouse brain (protein, UniProt P52912 1-386)
# chain: MEDEMPKTLYVGNLSRDVTEALILQLFSQIGPCKNCKMIMDTAGNDPYCFVEFHEHRHAAAALAAMNGRKIMGKEVKVNWATTPSSQKKDTSSSTVVSTQRSQDHFHVFVGDLSPEITTEDIKAAFAPFGRISDARVVKDMATGKSKGYGFVSFFNKWDAENAIQQMGGQWLGGRQIRTNWATRKPPAPKSTYESNTKQLSYDEVVSQSSPNNCTVYCGGVTSGLTEQLMRQTFSPFGQIMEIRVFPDKGYSFVRFSSHESAAHAIVSVNGTTIEGHVVKCYWGKETLDMINPVQQQNQIGYPPTYGQWGQWYGNAQQIGQYVPNGWQVPAYGVYGQPWSQQGFNQTQSSAPWMGPNYSVPPPQGQNGSMLPSQPAGYRVAGYETQ
# B5: TIA1-related protein (TIAR) of mouse brain (protein, UniProt P70318 1-392)
# chain: MMEDDGQPRTLYVGNLSRDVTEVLILQLFSQIGPCKSCKMITEQPDSRRVNSSVGFSVLQHTSNDPYCFVEFYEHRDAAAALAAMNGRKILGKEVKVNWATTPSSQKKDTSNHFHVFVGDLSPEITTEDIKSAFAPFGKISDARVVKDMATGKSKGYGFVSFYNKLDAENAIVHMGGQWLGGRQIRTNWATRKPPAPKSTQETNTKQLRFEDVVNQSSPKNCTVYCGGIASGLTDQLMRQTFSPFGQIMEIRVFPEKGYSFVRFSTHESAAHAIVSVNGTTIEGHVVKCYWGKESPDMTKNFQQVDYSQWGQWSQVYGNPQQYGQYMANGWQVPPYGVYGQPWNQQGFGVDQSPSAAWMGGFGAQPPQGQAPPPVIPPPNQAGYGMASFPTQ
# Target: T1, HA-tagged OTU domain-containing protein 4 (HA–OTUD4) (human)
# Assay: affinity purification with mass spectrometry; HA–OTUD4 purified from HEK293T lysate and held on HA-magnetic beads, incubated with ~5 mg protein of mouse cortex or cerebellum lysate at 4°C for 5 h; washed four times in PBS with 0.5% Triton X-100; hits found in at least two of three experiments per tissue and enriched ≥30 fold over control; only the target purified
row,Molecule,binding
1,B1,binds
2,B2,binds
3,B3,binds
4,B4,binds
5,B5,binds

# Target: T1, HA-tagged OTU domain-containing protein 4 (HA–OTUD4) (human)
# Assay: as above
# Remark: another data set of the same source
row,Molecule,binding
1,Pumilio 2 of mouse brain (from UniProt Q80U58 1-1066),binds
2,eIF4G of mouse brain,binds
3,TDP-43 of mouse brain (from UniProt Q921F2 1-414),binds
4,eIF4E of mouse brain (from UniProt P63073 1-217),binds
5,Staufen of mouse brain,binds
6,insulin-like growth factor 2 mRNA-binding protein 2 (IGF2BP2) of mouse brain (from UniProt Q5SF07 1-592),binds
7,eIF4A of mouse brain,binds
8,insulin-like growth factor 2 mRNA-binding protein 3 (IGF2BP3) of mouse brain (from UniProt Q9CPN8 1-579),binds
